Source: the supplement of paper PMC10849652
The list shows a part of the results. Residues, ends and D or L forms follow the SMILES beside them. *: point of attachment. Cbz = O=C(OCc1ccccc1)*

By UniProt entry, the sequences of proteins in these tests, tags left out. Where a name states a change or a piece, a line headed by the entry shows the natural chain unless it says otherwise.
UniProt Q9Y3E0: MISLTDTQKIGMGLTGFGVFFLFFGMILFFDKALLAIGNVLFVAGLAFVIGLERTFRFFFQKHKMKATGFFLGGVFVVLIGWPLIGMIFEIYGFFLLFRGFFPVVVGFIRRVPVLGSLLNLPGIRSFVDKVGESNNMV
UniProt Q3T906: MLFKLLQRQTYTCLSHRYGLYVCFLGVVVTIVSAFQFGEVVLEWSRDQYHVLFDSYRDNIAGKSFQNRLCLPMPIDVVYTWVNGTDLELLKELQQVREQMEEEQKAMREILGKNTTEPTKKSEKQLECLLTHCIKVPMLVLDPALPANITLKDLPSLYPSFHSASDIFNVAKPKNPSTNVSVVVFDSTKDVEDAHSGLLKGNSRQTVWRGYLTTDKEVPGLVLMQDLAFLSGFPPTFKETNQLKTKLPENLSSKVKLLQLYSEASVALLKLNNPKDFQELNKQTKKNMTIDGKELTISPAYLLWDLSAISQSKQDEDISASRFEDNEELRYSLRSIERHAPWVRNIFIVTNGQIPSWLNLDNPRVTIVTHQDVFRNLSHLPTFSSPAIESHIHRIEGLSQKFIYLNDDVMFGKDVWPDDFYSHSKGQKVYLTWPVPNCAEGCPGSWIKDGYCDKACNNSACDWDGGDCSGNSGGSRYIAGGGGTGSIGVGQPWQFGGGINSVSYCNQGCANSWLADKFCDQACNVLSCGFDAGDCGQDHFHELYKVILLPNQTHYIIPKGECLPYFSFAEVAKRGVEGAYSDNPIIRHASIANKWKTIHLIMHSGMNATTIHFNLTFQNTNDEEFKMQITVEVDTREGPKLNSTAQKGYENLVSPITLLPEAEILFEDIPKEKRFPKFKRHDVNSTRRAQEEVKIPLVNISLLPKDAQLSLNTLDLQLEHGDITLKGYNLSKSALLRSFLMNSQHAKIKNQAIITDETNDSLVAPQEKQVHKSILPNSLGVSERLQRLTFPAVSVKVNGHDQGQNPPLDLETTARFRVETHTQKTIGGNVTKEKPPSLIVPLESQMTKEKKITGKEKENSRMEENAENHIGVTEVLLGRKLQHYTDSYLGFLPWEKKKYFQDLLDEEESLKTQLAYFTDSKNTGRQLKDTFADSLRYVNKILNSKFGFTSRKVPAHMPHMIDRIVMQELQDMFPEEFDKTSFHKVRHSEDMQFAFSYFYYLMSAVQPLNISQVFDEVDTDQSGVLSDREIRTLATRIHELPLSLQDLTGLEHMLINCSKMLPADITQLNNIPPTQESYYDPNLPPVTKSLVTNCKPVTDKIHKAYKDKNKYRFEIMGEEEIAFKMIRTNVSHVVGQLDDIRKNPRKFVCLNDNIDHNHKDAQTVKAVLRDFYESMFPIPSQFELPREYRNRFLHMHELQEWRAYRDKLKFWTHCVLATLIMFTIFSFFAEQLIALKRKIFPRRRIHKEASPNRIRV
UniProt Q8IXQ4: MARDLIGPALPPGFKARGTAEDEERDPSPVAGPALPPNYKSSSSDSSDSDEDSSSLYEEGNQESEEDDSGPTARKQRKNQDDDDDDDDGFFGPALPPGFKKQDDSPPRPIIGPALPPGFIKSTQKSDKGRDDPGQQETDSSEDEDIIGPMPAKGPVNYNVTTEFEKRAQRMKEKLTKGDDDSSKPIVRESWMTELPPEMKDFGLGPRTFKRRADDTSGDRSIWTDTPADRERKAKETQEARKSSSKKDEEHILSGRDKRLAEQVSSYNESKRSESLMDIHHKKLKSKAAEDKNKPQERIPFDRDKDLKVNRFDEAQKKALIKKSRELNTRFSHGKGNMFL
UniProt O60234, whole entry, looked up: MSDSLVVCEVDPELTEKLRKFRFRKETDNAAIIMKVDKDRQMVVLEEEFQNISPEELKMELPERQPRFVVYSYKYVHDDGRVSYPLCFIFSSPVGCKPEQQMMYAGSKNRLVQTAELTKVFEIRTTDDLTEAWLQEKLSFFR
UniProt Q14691: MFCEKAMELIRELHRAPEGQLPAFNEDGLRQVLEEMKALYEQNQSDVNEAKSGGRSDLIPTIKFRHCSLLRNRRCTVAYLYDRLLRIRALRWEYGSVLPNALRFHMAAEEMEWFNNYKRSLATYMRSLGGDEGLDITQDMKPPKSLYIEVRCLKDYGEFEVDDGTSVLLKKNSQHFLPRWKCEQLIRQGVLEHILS
UniProt Q53EU6: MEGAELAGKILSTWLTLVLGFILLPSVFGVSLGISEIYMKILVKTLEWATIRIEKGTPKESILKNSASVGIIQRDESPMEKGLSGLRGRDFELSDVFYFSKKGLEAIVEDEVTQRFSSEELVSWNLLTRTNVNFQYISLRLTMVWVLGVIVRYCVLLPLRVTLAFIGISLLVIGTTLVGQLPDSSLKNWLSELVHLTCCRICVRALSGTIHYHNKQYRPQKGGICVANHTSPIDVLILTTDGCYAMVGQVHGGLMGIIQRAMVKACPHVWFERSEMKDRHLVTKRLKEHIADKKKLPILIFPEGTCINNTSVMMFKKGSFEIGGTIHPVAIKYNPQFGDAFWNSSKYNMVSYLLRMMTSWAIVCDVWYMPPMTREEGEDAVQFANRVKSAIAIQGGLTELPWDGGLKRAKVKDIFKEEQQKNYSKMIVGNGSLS
UniProt Q9BRX5: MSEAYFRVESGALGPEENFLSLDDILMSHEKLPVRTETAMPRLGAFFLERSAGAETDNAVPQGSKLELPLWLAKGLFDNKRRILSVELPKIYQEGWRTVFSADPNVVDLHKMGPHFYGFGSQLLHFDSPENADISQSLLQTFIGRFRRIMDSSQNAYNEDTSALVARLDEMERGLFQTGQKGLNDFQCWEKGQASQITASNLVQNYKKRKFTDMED
UniProt Q8TDQ7: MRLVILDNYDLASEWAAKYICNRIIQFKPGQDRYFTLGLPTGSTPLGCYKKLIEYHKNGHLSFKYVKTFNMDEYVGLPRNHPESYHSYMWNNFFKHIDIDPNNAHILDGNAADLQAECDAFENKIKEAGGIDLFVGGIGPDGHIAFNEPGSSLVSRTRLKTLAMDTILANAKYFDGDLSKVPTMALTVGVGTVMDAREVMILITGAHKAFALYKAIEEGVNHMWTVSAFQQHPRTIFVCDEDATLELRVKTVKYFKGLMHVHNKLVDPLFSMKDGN
UniProt Q86VQ1: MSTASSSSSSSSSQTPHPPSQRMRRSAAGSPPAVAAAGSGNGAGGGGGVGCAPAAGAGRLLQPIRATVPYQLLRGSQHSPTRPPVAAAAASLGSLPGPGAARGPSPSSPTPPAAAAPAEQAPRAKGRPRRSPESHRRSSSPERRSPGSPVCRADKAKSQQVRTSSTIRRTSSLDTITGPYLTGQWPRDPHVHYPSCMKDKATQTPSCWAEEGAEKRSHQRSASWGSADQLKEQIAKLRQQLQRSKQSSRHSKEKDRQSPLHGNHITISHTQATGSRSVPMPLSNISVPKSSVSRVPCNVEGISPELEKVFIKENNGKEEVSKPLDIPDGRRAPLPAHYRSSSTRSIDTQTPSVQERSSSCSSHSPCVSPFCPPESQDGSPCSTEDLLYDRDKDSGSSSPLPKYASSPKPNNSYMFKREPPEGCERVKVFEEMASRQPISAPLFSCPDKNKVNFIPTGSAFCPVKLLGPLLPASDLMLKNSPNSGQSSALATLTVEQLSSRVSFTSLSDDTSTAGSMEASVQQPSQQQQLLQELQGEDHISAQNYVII
UniProt O00461: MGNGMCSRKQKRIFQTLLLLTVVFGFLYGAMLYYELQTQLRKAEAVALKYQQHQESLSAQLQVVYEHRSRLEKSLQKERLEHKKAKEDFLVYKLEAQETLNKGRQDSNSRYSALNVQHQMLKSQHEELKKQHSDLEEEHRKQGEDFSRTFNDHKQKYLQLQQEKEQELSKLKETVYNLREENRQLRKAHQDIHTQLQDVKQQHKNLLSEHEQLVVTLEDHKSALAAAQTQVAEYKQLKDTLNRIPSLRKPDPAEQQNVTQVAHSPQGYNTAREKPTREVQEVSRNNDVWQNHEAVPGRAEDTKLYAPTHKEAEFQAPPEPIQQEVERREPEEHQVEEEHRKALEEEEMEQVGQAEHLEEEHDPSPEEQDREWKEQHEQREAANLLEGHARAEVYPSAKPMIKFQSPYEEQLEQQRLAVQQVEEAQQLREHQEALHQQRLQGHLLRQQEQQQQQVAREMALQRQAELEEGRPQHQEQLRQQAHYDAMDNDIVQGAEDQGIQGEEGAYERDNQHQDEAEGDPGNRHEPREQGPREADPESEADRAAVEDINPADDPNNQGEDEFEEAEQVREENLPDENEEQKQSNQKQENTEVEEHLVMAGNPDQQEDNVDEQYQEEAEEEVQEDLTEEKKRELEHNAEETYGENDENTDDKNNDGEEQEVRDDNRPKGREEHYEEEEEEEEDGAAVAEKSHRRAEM
UniProt P50148, whole entry, looked up: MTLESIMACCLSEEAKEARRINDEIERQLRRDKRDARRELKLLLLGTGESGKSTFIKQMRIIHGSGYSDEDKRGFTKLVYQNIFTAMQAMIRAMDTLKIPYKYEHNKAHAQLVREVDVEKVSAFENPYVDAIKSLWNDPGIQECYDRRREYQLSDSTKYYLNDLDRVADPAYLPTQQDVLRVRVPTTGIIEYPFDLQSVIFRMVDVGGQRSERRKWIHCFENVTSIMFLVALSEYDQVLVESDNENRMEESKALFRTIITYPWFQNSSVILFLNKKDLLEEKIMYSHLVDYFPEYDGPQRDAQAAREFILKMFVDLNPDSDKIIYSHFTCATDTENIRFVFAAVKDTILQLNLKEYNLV
UniProt P43304: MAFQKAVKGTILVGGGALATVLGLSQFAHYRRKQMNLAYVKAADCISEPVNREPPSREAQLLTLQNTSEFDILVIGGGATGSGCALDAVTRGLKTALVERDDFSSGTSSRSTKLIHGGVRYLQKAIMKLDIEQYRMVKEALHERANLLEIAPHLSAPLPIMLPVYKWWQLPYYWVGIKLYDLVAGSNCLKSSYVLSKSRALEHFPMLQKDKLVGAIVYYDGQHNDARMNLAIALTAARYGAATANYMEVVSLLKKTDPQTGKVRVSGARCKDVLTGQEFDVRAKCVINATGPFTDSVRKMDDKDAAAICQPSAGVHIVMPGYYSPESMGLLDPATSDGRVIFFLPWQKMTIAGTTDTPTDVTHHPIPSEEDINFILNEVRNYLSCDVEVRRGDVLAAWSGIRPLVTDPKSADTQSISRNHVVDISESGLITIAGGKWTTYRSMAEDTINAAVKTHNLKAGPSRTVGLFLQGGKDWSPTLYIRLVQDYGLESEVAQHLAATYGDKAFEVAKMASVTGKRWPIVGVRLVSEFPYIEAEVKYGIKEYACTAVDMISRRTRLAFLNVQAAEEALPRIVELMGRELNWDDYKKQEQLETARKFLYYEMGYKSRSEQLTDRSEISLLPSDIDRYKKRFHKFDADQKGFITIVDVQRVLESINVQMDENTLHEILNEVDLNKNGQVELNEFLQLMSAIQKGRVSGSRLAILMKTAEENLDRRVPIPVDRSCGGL
UniProt Q9NQX3: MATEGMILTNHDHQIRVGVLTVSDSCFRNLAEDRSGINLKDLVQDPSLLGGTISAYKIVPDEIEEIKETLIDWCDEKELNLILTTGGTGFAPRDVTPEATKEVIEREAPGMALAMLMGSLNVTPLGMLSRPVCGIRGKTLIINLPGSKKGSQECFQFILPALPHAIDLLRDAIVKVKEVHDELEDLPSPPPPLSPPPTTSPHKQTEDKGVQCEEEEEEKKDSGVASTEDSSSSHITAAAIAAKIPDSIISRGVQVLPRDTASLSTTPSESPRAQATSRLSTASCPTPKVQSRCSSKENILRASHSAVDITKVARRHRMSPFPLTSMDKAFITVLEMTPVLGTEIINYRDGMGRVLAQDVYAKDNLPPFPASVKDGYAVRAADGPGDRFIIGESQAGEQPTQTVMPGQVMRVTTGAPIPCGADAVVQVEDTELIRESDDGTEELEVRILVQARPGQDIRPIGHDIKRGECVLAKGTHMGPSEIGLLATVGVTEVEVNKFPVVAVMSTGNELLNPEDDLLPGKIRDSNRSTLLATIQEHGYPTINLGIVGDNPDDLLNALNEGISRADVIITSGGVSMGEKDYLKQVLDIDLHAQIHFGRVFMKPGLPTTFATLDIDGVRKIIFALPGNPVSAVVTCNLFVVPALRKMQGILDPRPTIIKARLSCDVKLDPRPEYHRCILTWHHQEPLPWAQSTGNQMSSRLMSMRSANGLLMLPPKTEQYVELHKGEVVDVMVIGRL
UniProt Q96IJ6: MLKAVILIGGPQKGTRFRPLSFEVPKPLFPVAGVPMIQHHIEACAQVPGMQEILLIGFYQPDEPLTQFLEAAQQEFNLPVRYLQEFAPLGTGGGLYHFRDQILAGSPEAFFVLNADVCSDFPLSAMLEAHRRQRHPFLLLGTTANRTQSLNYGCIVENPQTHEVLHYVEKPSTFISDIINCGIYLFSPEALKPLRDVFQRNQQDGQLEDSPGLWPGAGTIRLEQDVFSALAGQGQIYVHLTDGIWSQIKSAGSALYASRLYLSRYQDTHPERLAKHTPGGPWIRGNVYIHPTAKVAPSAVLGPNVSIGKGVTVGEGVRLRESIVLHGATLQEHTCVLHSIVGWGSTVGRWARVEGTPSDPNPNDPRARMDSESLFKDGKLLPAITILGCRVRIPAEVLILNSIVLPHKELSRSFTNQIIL

Legend:
Assay in all cases: log2 fold change, soluble protein after heating vs DMSO (PISA); higher = thermal stabilisation; K562 cells, 10 uM, 30 min; active = over 0.2 and 3.5 SD of the protein, either way, in both replicates (recomputed)
erlotinib = compound: C#Cc1cccc(Nc2ncnc3cc(OCCOC)c(OCCOC)cc23)c1 [erlotinib]
In short: (§1)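 K562 cells at 2×10^6 cells/mL were treated with 10 μM compound for 30 min. Aliquots were heated for 3 min across 48°C-58°C, pooled, and extracted in PBS with 0.5% NP-40 at 4°C; soluble protein was the supernatant after 21,000xg for 90 min. Soluble protein was quantified by TMTpro 16plex LC-MS/MS with channel sums equalised, and reported as log2 fold change in thermal stability against DMSO controls, with values from duplicates.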

[1] = compound: C/C(=N\NC(=O)C1=CC(=CC=C1)S(=O)(=O)N2CCOCC2)/C3=C(C=CC(=C3)Cl)O
In short: as §1

[2] = compound: C1=CC(=C(C=C1Cl)C2=NC3=NC=CN=C3C(=N2)NC4=CC=NC=C4)F
In short: as §1

[3] = compound: C1=CC(=CC=C1C2=NC3=C(N2)C=C(C=C3)C(=O)N)OC4=CC=C(C=C4)Cl
In short: as §1

[4] = compound: C1=CC2=C(C=CC(=C2)/C=C\3/C(=O)NC(=NCC4=CC=CS4)S3)N=C1
In short: as §1

[5] = compound: C1=CC2=NC=CN=C2C=C1/C=C/3\C(=O)NC(=O)S3
In short: as §1

[6] = compound: C1=CC=C(C=C1)C2=NC(=C(N2)C3=CC=NC=C3)C4=CC(=C(C=C4)Cl)O
In short: as §1

[7] = compound: C1=CC=C2C(=C1)C3=NNC4=CC=CC(=C43)C2=O
In short: as §1

[8] = compound: C1CCN(C1)C(=O)NC2=CC=CC(=C2)NC3=NC=C(C(=N3)NCCC4=CN=CN4)Br
In short: as §1

[9] = compound: C1CN(CCC1(CC2=CC=C(C=C2)Cl)N)C3=NC=NC4=C3C=CN4
In short: as §1

IRAK-1-4 Inhibitor I = compound: C1COCCN1CCN2C3=CC=CC=C3N=C2NC(=O)C4=CC(=CC=C4)[N+](=O)[O-] [IRAK-1-4 Inhibitor I]
In short: as §1

ibrutinib = compound: C=CC(=O)N1CCC[C@@H](n2nc(-c3ccc(Oc4ccccc4)cc3)c3c(N)ncnc32)C1 [ibrutinib]
In short: as §1

[10] = compound: CC(=O)c1cnc2ccc(-c3cc(Cl)c(O)c(Cl)c3)nc2c1N[C@H]1CC[C@H](CN(C)C)CC1
In short: as §1

ralimetinib = compound: CC(C)(C)Cn1c(N)nc2ccc(-c3[nH]c(C(C)(C)C)nc3-c3ccc(F)cc3)nc21 [ralimetinib]
In short: as §1

[11] = compound: CC(C)(O)CC(=O)NCCn1ccc2ncnc(Nc3ccc(Oc4cccc(C(F)(F)F)c4)c(Cl)c3)c21
In short: as §1

[12] = compound: CC(C)C1=C2N=C(C=C(N2N=C1)NCC3=CC=CC=C3)NCCCCCCN
In short: as §1

[13] = compound: CC(C)C[C@@H](C=O)NC(=O)[C@H](CC(C)C)NC(=O)[C@H](CC(C)C)NC(=O)OCc1ccccc1
In short: as §1

pinometostat = compound: CC(C)N(C[C@H]1O[C@@H](n2cnc3c(N)ncnc32)[C@H](O)[C@@H]1O)[C@H]1C[C@@H](CCc2nc3cc(C(C)(C)C)ccc3[nH]2)C1 [pinometostat]
In short: as §1

[14] = compound: CC1=C(C(CC(=O)N1)C2=CC=C(C=C2)C(F)(F)F)C(=O)NC3=C(C=C4C(=C3)C=NN4)F
In short: as §1

[15] = compound: CC1=C(C2=C(C=C1)C(=O)C3=CC=CC=C3N2CCCN)C
In short: as §1

Measured: log2 fold change

GOLGA3 (UniProt Q08378)
inactive: erlotinib -0.009 | [1] 0.03 | [2] 0.074 | [3] 0.01 | [4] 0.013 | [5] 0.015 | [6] 0.019 | [7] -0.04 | [8] -0.018 | [9] -0.02 | IRAK-1-4 Inhibitor I 0.034 | ibrutinib -0.004 | [10] 0.015 | ralimetinib 0.052 | [11] -0.024 | [12] 0.015 | [13] -0.035 | pinometostat 0.01 | [14] -0.012 | [15] 0.04

GMDS (UniProt O60547)
inactive: erlotinib 0.001 | [1] 0.042 | [2] 0.021 | [3] -0.011 | [4] 0.056 | [5] 0.029 | [6] -0.017 | [7] 0 | [8] -0.008 | [9] 0.085 | IRAK-1-4 Inhibitor I 0.033 | ibrutinib 0.014 | [10] -0.005 | ralimetinib -0.054 | [11] -0.021 | [12] 0.056 | [13] -0.009 | pinometostat -0.044 | [14] 0.009 | [15] -0.002

GOLT1B (UniProt Q9Y3E0)
inactive: erlotinib 0.042 | [1] 0.01 | [2] 0.012 | [3] 0.028 | [4] 0.009 | [5] 0.032 | [6] 0.077 | [7] -0.056 | [8] -0.01 | [9] 0.059 | IRAK-1-4 Inhibitor I -0.005 | ibrutinib -0.06 | [10] 0.046 | ralimetinib -0.002 | [11] -0.002 | [12] -0.003 | [13] -0.118 | pinometostat -0.023 | [14] 0.02 | [15] -0.032

GNPTAB (UniProt Q3T906)
inactive: erlotinib 0.063 | [1] 0 | [2] 0.087 | [3] 0.045 | [4] 0.029 | [5] -0.004 | [6] -0.124 | [7] -0.053 | [8] 0.085 | [9] -0.079 | IRAK-1-4 Inhibitor I -0.092 | ibrutinib 0.115 | [10] -0.051 | ralimetinib -0.066 | [11] -0.061 | [12] -0.043 | [13] 0.015 | pinometostat 0.004 | [14] 0.075 | [15] 0.019

GPALPP1 (UniProt Q8IXQ4)
inactive: erlotinib 0.011 | [1] 0.003 | [2] -0.002 | [3] 0.029 | [4] 0.041 | [5] 0.045 | [6] -0.069 | [7] 0.005 | [8] 0.071 | [9] 0.011 | IRAK-1-4 Inhibitor I 0.05 | ibrutinib -0.008 | [10] 0.005 | ralimetinib -0.045 | [11] 0.04 | [12] 0.031 | [13] 0.058 | pinometostat -0.015 | [14] -0.014 | [15] -0.045

GMFG (UniProt O60234)
inactive: erlotinib -0.019 | [1] 0.017 | [2] 0.014 | [3] -0.016 | [4] 0.004 | [5] 0.01 | [6] 0.028 | [7] -0.012 | [8] -0.018 | [9] -0.027 | IRAK-1-4 Inhibitor I 0.041 | ibrutinib -0.025 | [10] -0.01 | ralimetinib -0.094 | [11] -0.026 | [12] -0.039 | [13] 0.045 | pinometostat -0.006 | [14] -0.044 | [15] -0.079

GINS1 (UniProt Q14691)
inactive: erlotinib 0.017 | [1] 0.034 | [2] 0.086 | [3] 0.007 | [4] 0 | [5] 0.023 | [6] 0.072 | [7] -0.031 | [8] 0.007 | [9] 0.023 | IRAK-1-4 Inhibitor I 0.058 | ibrutinib -0.016 | [10] 0.003 | ralimetinib 0.031 | [11] -0.035 | [12] -0.017 | [13] -0.016 | pinometostat -0.054 | [14] -0.011 | [15] 0.009

GPAT3 (UniProt Q53EU6)
inactive: erlotinib -0.048 | [1] 0.147 | [2] -0.085 | [3] 0.028 | [4] 0 | [5] 0.057 | [6] -0.001 | [7] -0.038 | [8] 0.011 | [9] 0.053 | IRAK-1-4 Inhibitor I 0.028 | ibrutinib -0.057 | [10] -0.059 | ralimetinib -0.016 | [11] 0.02 | [12] 0.131 | [13] -0.034 | pinometostat -0.039 | [14] -0.134 | [15] 0.008

GINS3 (UniProt Q9BRX5)
inactive: erlotinib -0.005 | [1] 0.117 | [2] 0.054 | [3] -0.027 | [4] -0.022 | [5] 0.012 | [6] 0.019 | [7] 0.042 | [8] 0.025 | [9] -0.026 | IRAK-1-4 Inhibitor I 0.009 | ibrutinib -0.025 | [10] -0.01 | ralimetinib -0.015 | [11] -0.032 | [12] -0.057 | [13] -0.012 | pinometostat -0.004 | [14] -0.035 | [15] 0.031

GNPDA2 (UniProt Q8TDQ7)
inactive: erlotinib 0.005 | [1] 0.037 | [2] -0.023 | [3] 0.042 | [4] 0.027 | [5] 0.079 | [6] -0.058 | [7] -0.061 | [8] 0.042 | [9] -0.014 | IRAK-1-4 Inhibitor I 0.015 | ibrutinib 0.001 | [10] 0.013 | ralimetinib -0.103 | [11] 0.032 | [12] 0.089 | [13] -0.013 | pinometostat -0.014 | [14] -0.035 | [15] 0.018

GLCCI1 (UniProt Q86VQ1)
inactive: erlotinib 0.027 | [1] -0.101 | [2] -0.058 | [3] -0.006 | [4] 0.091 | [5] 0.023 | [6] -0.264 | [7] -0.017 | [8] -0.044 | [9] -0.024 | IRAK-1-4 Inhibitor I 0.062 | ibrutinib 0.013 | [10] -0.131 | ralimetinib 0.001 | [11] -0.012 | [12] 0.075 | [13] 0.017 | pinometostat -0.03 | [15] -0.013

GOLIM4 (UniProt O00461)
inactive: erlotinib 0.033 | [1] 0.01 | [2] -0.006 | [3] 0.001 | [4] 0.047 | [5] 0.01 | [6] -0.012 | [7] 0.022 | [8] -0.007 | [9] 0.001 | IRAK-1-4 Inhibitor I 0.024 | ibrutinib 0.004 | [10] -0.005 | ralimetinib -0.017 | [11] 0.046 | [12] -0.029 | [13] -0.053 | pinometostat -0.012 | [14] -0.021 | [15] 0.005

GNAQ (UniProt P50148)
inactive: erlotinib -0.007 | [1] -0.003 | [2] 0.023 | [3] 0.055 | [4] 0.022 | [5] -0.014 | [6] -0.017 | [7] -0.026 | [8] -0.033 | [9] 0.085 | IRAK-1-4 Inhibitor I 0.018 | ibrutinib 0.063 | [10] -0.093 | ralimetinib -0.068 | [11] 0.036 | [12] 0.095 | [13] 0.008 | pinometostat -0.004 | [14] -0.046 | [15] 0.039

GPD2 (UniProt P43304)
inactive: erlotinib -0.01 | [1] -0.015 | [2] 0.051 | [3] 0.02 | [4] 0.004 | [5] 0.026 | [6] 0.067 | [7] -0.021 | [8] 0.008 | [9] 0.024 | IRAK-1-4 Inhibitor I 0.026 | ibrutinib 0.021 | [10] 0.007 | ralimetinib 0.002 | [11] 0 | [12] 0.038 | [13] -0.059 | pinometostat -0.018 | [14] 0.013 | [15] -0.016

GPHN isoform 2 (UniProt Q9NQX3)
inactive: erlotinib 0.045 | [1] -0.01 | [2] 0.023 | [3] 0.023 | [4] 0.018 | [5] 0.014 | [6] 0 | [7] -0.04 | [8] -0.011 | [9] 0.054 | IRAK-1-4 Inhibitor I 0.014 | ibrutinib -0.001 | [10] 0.007 | ralimetinib -0.071 | [11] -0.011 | [12] 0.071 | [13] -0.001 | pinometostat -0.021 | [14] 0.007 | [15] 0.03

Reprinted from the listing (3 entries):
GNPDA2 (UniProt Q8TDQ7)
inactive: erlotinib 0.005 | [1] 0.037 | [2] -0.023 | [3] 0.042 | [4] 0.027 | [5] 0.079 | [6] -0.058 | [7] -0.061 | [8] 0.042 | [9] -0.014 | IRAK-1-4 Inhibitor I 0.015 | ibrutinib 0.001 | [10] 0.013 | ralimetinib -0.103 | [11] 0.032 | [12] 0.089 | [13] -0.013 | pinometostat -0.014 | [14] -0.035 | [15] 0.018

GLCCI1 (UniProt Q86VQ1)
inactive: erlotinib 0.027 | [1] -0.101 | [2] -0.058 | [3] -0.006 | [4] 0.091 | [5] 0.023 | [6] -0.264 | [7] -0.017 | [8] -0.044 | [9] -0.024 | IRAK-1-4 Inhibitor I 0.062 | ibrutinib 0.013 | [10] -0.131 | ralimetinib 0.001 | [11] -0.012 | [12] 0.075 | [13] 0.017 | pinometostat -0.03 | [15] -0.013

GOLIM4 (UniProt O00461)
inactive: erlotinib 0.033 | [1] 0.01 | [2] -0.006 | [3] 0.001 | [4] 0.047 | [5] 0.01 | [6] -0.012 | [7] 0.022 | [8] -0.007 | [9] 0.001 | IRAK-1-4 Inhibitor I 0.024 | ibrutinib 0.004 | [10] -0.005 | ralimetinib -0.017 | [11] 0.046 | [12] -0.029 | [13] -0.053 | pinometostat -0.012 | [14] -0.021 | [15] 0.005

Carrying on.

GMPPA (UniProt Q96IJ6)
inactive: erlotinib 0.027 | [1] 0 | [2] 0.04 | [3] -0.007 | [4] -0.027 | [5] -0.016 | [6] 0.028 | [7] 0.023 | [8] -0.032 | [9] 0.05 | IRAK-1-4 Inhibitor I 0.054 | ibrutinib 0.037 | [10] 0.044 | ralimetinib -0.028 | [11] -0.028 | [12] 0.034 | [13] -0.021 | pinometostat -0.048 | [14] 0.02 | [15] 0.12
